The values below come from US20130078247A1.

Amino acid sequences for entries named in this document (tags omitted). A change or cut given only in a name is not applied to a line headed by its entry. Chains listed by the source or under a name are the forms on record and can include a tag or linker. Residues count along the entry.
UniProt Q9NR61: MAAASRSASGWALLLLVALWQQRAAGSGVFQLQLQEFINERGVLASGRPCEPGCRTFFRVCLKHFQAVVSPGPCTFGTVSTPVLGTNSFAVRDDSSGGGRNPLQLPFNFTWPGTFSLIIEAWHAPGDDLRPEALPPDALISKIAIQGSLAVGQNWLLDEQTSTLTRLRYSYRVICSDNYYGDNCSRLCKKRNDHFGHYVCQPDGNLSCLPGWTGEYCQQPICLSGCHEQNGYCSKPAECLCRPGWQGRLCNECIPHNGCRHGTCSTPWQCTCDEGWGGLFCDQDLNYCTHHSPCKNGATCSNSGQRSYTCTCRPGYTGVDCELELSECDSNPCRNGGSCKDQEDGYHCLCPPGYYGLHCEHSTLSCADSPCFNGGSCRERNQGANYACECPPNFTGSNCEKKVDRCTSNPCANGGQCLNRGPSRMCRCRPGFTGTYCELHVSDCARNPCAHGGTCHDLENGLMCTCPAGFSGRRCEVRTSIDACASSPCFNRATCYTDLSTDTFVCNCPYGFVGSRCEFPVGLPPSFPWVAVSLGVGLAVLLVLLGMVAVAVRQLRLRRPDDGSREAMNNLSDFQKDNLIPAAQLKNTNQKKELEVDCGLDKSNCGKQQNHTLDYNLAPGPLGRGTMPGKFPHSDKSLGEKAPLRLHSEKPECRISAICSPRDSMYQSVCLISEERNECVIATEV
UniProt Q9JI71: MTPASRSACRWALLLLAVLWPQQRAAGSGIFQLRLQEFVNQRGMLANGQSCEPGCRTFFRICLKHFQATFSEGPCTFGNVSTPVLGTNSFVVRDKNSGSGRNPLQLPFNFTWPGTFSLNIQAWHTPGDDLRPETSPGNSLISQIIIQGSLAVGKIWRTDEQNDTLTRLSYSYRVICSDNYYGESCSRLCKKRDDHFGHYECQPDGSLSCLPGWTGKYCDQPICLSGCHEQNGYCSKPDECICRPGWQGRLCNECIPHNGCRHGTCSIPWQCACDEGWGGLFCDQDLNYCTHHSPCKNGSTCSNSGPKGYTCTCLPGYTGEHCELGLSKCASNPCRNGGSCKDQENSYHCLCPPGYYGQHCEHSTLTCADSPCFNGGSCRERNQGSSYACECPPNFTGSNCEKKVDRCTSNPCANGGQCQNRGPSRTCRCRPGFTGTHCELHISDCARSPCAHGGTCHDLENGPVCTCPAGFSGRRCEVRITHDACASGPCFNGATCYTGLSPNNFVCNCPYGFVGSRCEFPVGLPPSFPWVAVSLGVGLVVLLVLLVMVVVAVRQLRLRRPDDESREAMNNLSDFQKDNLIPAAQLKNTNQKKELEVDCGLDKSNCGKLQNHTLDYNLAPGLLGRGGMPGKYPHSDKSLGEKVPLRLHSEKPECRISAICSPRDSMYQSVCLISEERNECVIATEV
mouse DLL4, full length, overexpressed on CHO or HEK293 cells: residues 27-686 of Q9JI71
recombinant mouse DLL4 extracellular domain, C-terminally His-tagged (R&D Systems): residues 27-525 of Q9JI71

Test [1] deals with recombinant human DLL4 extracellular domain, C-terminally His-tagged (R&D Systems) (human) (UniProt Q9NR61). Description: AlphaScreen competition: biotinylated hDLL4 (donor beads) / hNotch1-Fc (acceptor beads). In general terms: In Alpha technology, singlet oxygen from a donor bead excites a nearby acceptor bead.
For test [2] the target is unchanged. The test can be described thus: SPR binning, hDLL4 captured by immobilized Fab, VHH at 100 nM.
Test [3] deals with mouse DLL4, full length, overexpressed on CHO or HEK293 cells (mouse) (UniProt Q9JI71). Description: FMAT competition: labelled hNotch1-Fc on CHO-mDLL4 cells.
The target in test [4] is recombinant human DLL4 extracellular domain, C-terminally His-tagged (R&D Systems) (human) (UniProt Q9NR61). Description: binding ELISA on coated rhDLL4. On the technique in general: ELISA stands for enzyme-linked immunosorbent assay.
In test [5] the target is recombinant mouse DLL4 extracellular domain, C-terminally His-tagged (R&D Systems) (mouse) (UniProt Q9JI71). Description: binding ELISA on coated rmDLL4.
For test [6], the target named is cynomolgus DLL4, full length, overexpressed on cells (cynomolgus). The test can be described thus: characterisation of Example 7 (FACS on cells).
In test [7] the target is mouse DLL4, full length, overexpressed on CHO or HEK293 cells (mouse) (UniProt Q9JI71). Description: characterisation of Example 7 (FACS on cells).
Test [8] concerns the target human DLL4, full length, overexpressed on CHO or HEK293 cells (human) (UniProt Q9NR61). Description: FACS titration on cells overexpressing human DLL4, MCF.
The target of test [9] is mouse DLL4, full length, overexpressed on CHO or HEK293 cells (mouse) (UniProt Q9JI71). The test can be described thus: FACS titration on cells overexpressing mouse DLL4, MCF.
In test [10] the target is cynomolgus DLL4, full length, overexpressed on cells (cynomolgus). The test can be described thus: FACS titration on cells overexpressing cynomolgus DLL4, MCF.
In test [11] the target is human DLL4, full length, overexpressed on CHO or HEK293 cells (human) (UniProt Q9NR61). The test can be described thus: FMAT competition: labelled hNotch1-Fc on CHO-hDLL4 cells.

These are yes or no findings as the source states them, for the method shown. Some binding calls cover weakened binding; strength is not graded here.

B1: DLLBII8C11 (VHH, not shown: small tags and cut ends)
VHH: EVQLVESGGGLVQAGGSLRLSCAASGFTFDDYAIGWFRQAPGKEREGVSCISSHDRTTYYADSVKGRFTISSDNAKNTVYLQMNSLKPEDTAVYYCAADPLVCGYNDPRLADYWGQGTQVTVSS
As to B1, the binding result in test [1] is recorded as “binds”.

B2: DLLBII104G01 (VHH, not shown: small tags and cut ends)
VHH: EVQLVESGGGLVQAGGSLRLSCAASGFTFDDYAIGWFRQAPGKEREGVSCISSSDGSTYYADSVKGRFTISSDNAKNTVYLQMNSLKPEDTAVYYCATAWCDSSWYRSFVGYWGQGTQVTVSS
For B2, the binding entry in test [2] is “binds”.

B3: DLLBII95F02 (VHH, not shown: small tags and cut ends)
VHH: EVQLVESGGGSVQAGGSLRLSCAASGRTFSSYAMGWFRQAPGKEREFVAAINWSGGYTYYADSVRGRFTISRDNAKNTVYLQMNSLKPEDTAVYYCAAPAPGSSGYEYDYWGQGTQVTVSS
Regarding B3, in [1], the binding entry is reported as “binds”.

B4: DLLBII102G04 (VHH, not shown: small tags and cut ends)
VHH: EVQLMESGGGLVQPGGSLRLSCAASGFTFSSYAMSWVRQAPGKGLEWVSRITSGGRTTYRDSVKGRFTISRDNSKNTLYLQMNSLKPEDTALYYCAKARGDIDVYTLSDSRGQGTQVTVSS
As to B4, the binding result in [1] is listed as “binds”.

B5: DLLBII19F04 (VHH, not shown: small tags and cut ends)
VHH: EVQLVESGGGLVQAEGSLRLSCAASGSTFSTYAMAWYRQAPGKQRELVAGISFDGSTHYAESVKGRFTISRDDAKNTVSLQMNSLKPEDAAVYYCYSVHPSTGFGSWGQGTQVTVSS
For B5, the binding entry in [1] is “binds”.

B6: DLLBII58A11 (VHH, not shown: small tags and cut ends)
VHH: EVQLVESGGGLVQAGGSLRLSCTTSERTVSRYSMGWFRQAPGKEREAVATISWSGDSTYYADSVKGRFTISRDNTKNTLYLQIDSLKPEDTAVYYCVAKPNLKYGSYWPPRGYDYWGQGTQVTVSS
In the case of B6, in test [3], the binding entry is recorded as “binds”.

B7: DLLBII107C03 (VHH, not shown: small tags and cut ends)
VHH: EVQLVESGGGLVQPGGSLRLSCEVSGSIGSVSDMRWYRQAPGLQYELVARITSGSITDYSDSVKGRFTISRDNAKNTVYLQMNSLKPEDTAVYYCNADVQHSAWLKPLTYWGQGTQVTVSS
Take B7: the binding result in test [3] was “binds”.

B8: DLLBII115A05 (VHH, not shown: small tags and cut ends)
VHH: EVQLVESGGGLVQPGGSLRLSCAASGFTFGSYDMSWVRRSPGKGPEWVSSINSGGGSTYYADFVKGRFTISRDNAKNTLYLQMNSLKPEDTAVYYCAADRYIRARQGDYWGAYEYDYWGQGTQVTVSS
Regarding B8, the binding entry in [4] is on record as “binds”.

B9: DLLBII015 (VHH, not shown: small tags and cut ends)
VHH: EVQLVESGGGLVQPGGSLRLSCAASGFTIGSYDMSWVRRSPGKGPEWVSAINSGGGSTYYADYVKGRFTISRDNAKNTLYLQMNSLKPEDTAVYYCAADRYIWARQGEYWGAYAYDYWGQGTQVTVSS
As for B9, the binding entry in test [4], in test [5], in [6], in test [7], in test [8] and in test [9] was “binds” throughout. Moreover, in [10], the binding result is listed as “binds”.

B10: DLLBII133A09 (VHH, not shown: small tags and cut ends)
VHH: EVQLVESGGGLVQPGGSLRLSCAASGFTFGSYDMSWVRRSPGKGPEWVSAINSGGGSTYYADYVKGRFTISRDNAKNTLYLQMNSLKPEDTAVYYCAADRYIWARQGEYWGAYAYDYWGQGTQVTVSS
As for B10, the binding entry in [4] was “binds”.

B11: DLLBII133G05 (VHH, not shown: small tags and cut ends)
VHH: EVQLVESGGGLVQPGGSLRLSCAASGFTFGSYDMSWVRRSPGKGPEWVSAINSGGGSTYYTDYVKGRFTISRDNAKNTLYLQMNSLKPEDTAVYYCAADRYIWARQGEYWGAYAYDYWGQGTQVTVSS
B11: the binding result in test [4] is given as “binds”.

B12: DLLBII136C07 (VHH, not shown: small tags and cut ends)
VHH: EVQLVESGGGLVQPGGSLRLSCAASGFTFGSYDMSWVRRSPGKGPEWVSSINSGGGSTYYADYVKGRFTISRDNAKNTLYLQMNSLKPEDTAVYYCAADRYIWARQGEYWGAYEYDYWGQGTQVTVSS
With B12, the binding entry in test [4] is listed as “binds”.

B13: DLLBII129D08 (VHH, not shown: small tags and cut ends)
VHH: EVQLVESGGGLVQAGGSLRLSCAASGRTFSSYAMAWYRQAPGKEREYVAAIRWSGGTAYYADSVQGRFTISRDNAKNTVYLQMNSLKPEDTAVYYCANRAPDTRLEPYLYDYWGQGTQVTVSS
As for B13, the binding entry in test [4] is reported as “binds”.

B14: DLLBII101G08 (VHH, not shown: small tags and cut ends)
VHH: EVQLVESGGGLVQAGGSLRLSCAASGRTFSSYAMAWFRQAPGKEREFVAAIRWSGGTAYYADSVQGRFTISRDNAKNTVYLQMNSLKPEDTAVYYCANRAADTRLGPYEYDYWGQGTQVTVSS
With B14, in test [4], the binding entry is “binds”.

B15: DLLBII129E11 (VHH, not shown: small tags and cut ends)
VHH: EVQLVESGGGLVQAGGSLRLSCAASGRTFSSYAMAWYRQAPGKEREYVAAIRWSGGTAYYADSVQGRFTISRDNAKNTVYLQMNSLKPEDTAVYYCANRAPDTRLRPYLYDYWGQGTQVTVSS
As to B15, the binding result in test [4] is given as “binds”.

B16: DLLBII6B11 (VHH, not shown: small tags and cut ends)
VHH: EVQLVESEGGLVQAGGSLRLSCAASGSTFSSYAMGWYRQAPGKQRELVAVISNGGITNYPNSVKGRFTISRDNAKNTVYLQMNSLKPEDTAVYYCFYSGSYYYPTDVHEYDYWGQGTQVTVSS
In the case of B16, the binding entry in [2] is given as “binds”.

B17: 83G04 (VHH)
VHH: EVQLVESGGGLVKPGGSLRLSCAASGRTLYIMGWYRQAPGKEREFVAGISRYGDITYAADSVKGRFTISRDSVKNTVYLRMNSLKPDDTAVYYCAANGGYCSGYGCYEDSGQYDYWGQGTQVTVSS
With B17, the binding entry in test [3], in [11] and in test [1] was “binds” throughout.

B18: DLLBII61F07 (VHH, not shown: small tags and cut ends)
VHH: EVQLVESGGGLVQAGGSLRLSCAASGRTFSRYAMGWFRQAPGKEREFVAAINWSGGSTYYADSVKGRFTISRDNAKNTVYLQMNSLKPEDTAVYDCAASNYYSVYDDRPVMDYWGQGTQVTVSS
As to B18, the binding result in test [3] and in test [1] was “binds” throughout.

B19: DLLBII61F05 (VHH, not shown: small tags and cut ends)
VHH: EVQLVESGGGLVQPGGSLRLSCTASGFTFSSYAMSWVRQAPGKGLEWVSFINKDGSDTGYADSVKGRFTISRDNAKNTMYLQMNSLKPEDTAVYFCETRTSRSPRPRGQGTQVTVSS
Turning to B19, the binding result in test [3] and in test [1] was “binds” throughout.
